Experimental data reported in publication PMC8727353.
No constants are given. Whether binding was seen depends on the method and setting. In cells and extracts the contact can be indirect. These calls come from enrichment with a bait or labelling near it, and not all partners need be listed.

B1: Proteasome α6 subunit (protein, UniProt P12881 1-279)
chain: MFRNQYDSDVTVWSPQGRLHQVEYAMEAVKLGTATVGLKNKDYAVLVALCKPTSELSDTQRKIIPIDDHLGISIAGLTADARVLSRYLRSECLNYKHSYDTTYPVSRLITNLGNKMQTTTQRYDRRPYGVGLLVAGYDERGPHIYQVTPSATFFNCKANSIGSRSQSARTYLEKNLNKFLDSSKDEIIRHGIRAILGTLPTDEQGKDAGQYDITVAIVGKDQPFTILSNKDSAKHVAIAKENDNDTPRNDDDDDRPSPPEEPAAGPRDPEVLVATEQRP
B2: ced-6 (protein, UniProt Q7JUY7 1-517)
chain: MPYQPANSGGTSGGSKAAAKMAQLKFWNKQNSSKQQQQDKDKDAADGGNNTSGGGTGSNSNGDAKSEAKNGKRNWLHTPEQLISGHAVYLVKFFGNLSVDQPKGIEVVKEAIRKLQFAQQMKKAETGTQEKFKKLEITISIKGVAIQEPRTHKILHQFPLYNISYCADEKGVKKFFSFIAKTVKTQDGSDPTSNGHANGNGDGSAKVEESHECFVFISNKLASDITLTIGQAFDLAYRKYMDSTEKTNLSKAQQQINHLQQTVNVYKERLREVSAKLPKAELDALLFNLGIKDILEAPTTEPQNGIEVASEALSNGKLDDDKLLIDTNSTTASTHSASPSSFLPIVPPRNNLSSQISIGGKSNSQKMDELLLNSDSDSDFDPRADETQEIGGTGRSAISNMFGFEPANSFGQHLFSNNNDHKLQNNNSSLLITSNNNSINSSGFSSELNITPPLLAPPPKIAAPRRLNSVTTGNGLNGNTDLFGSDPFELNNGPNIFKQNQLNLDDFSLESLDPLRK
B3: Ras-like protein A (protein, UniProt P48555 1-201)
chain: MSKKPTAGPALHKVIMVGSGGVGKSALTLQFMYDEFVEDYEPTKADSYRKKVVLDGEEVQIDILDTAGQEDYAAIRDNYFRSGEGFLCVFSITDDESFQATQEFREQILRVKNDESIPFLLVGNKCDLNDKRKVPLSECQLRAQQWAVPYVETSAKTRENVDKVFFDLMREIRSRKTEDSKATSGRAKDRCKKRRLKCTLL
B4: Twins (protein, UniProt P36872 1-499)
chain: MGRWGRQSPVLEPPDPQMQTTPPPPTLPPRTFMRQSSITKIGNMLNTAININGAKKPASNGEASWCFSQIKGALDDDVTDADIISCVEFNHDGELLATGDKGGRVVIFQRDPASKAANPRRGEYNVYSTFQSHEPEFDYLKSLEIEEKINKIRWLQQKNPVHFLLSTNDKTVKLWKVSERDKSFGGYNTKEENGLIRDPQNVTALRVPSVKQIPLLVEASPRRTFANAHTYHINSISVNSDQETFLSADDLRINLWHLEVVNQSYNIVDIKPTNMEELTEVITAAEFHPTECNVFVYSSSKGTIRLCDMRSAALCDRHSKQFEEPENPTNRSFFSEIISSISDVKLSNSGRYMISRDYLSIKVWDLHMETKPIETYPVHEYLRAKLCSLYENDCIFDKFECCWNGKDSSIMTGSYNNFFRVFDRNSKKDVTLEASRDIIKPKTVLKPRKVCTGGKRKKDEISVDCLDFNKKILHTAWHPEENIIAVAATNNLFIFQDKF

molecular target: Eye transformer with a V5 tag (ET-V5) (Drosophila melanogaster); assay: affinity purification with mass spectrometry; Anti-V5 Agarose Affinity Gel incubated overnight at 4°C with lysates of S2 cells stably expressing ET-V5, with or without Upd1-myc; washed 6 x 10 min with PBS with protease and phosphatase inhibitors; SDS-PAGE, silver stain, in-gel trypsin digestion, LC-MS/MS; proteins also found in the negative controls (untreated S2 cells, empty pMT vector) excluded

| binding | Binder |
| --- | --- |
| binds | B1 |
| binds | B2 |
| binds | B3 |
| binds | B4 |
